{"source": "PubChem BioAssay AID602196 (INSERM, 2012)", "assay": "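Knock-downs that protect lung cancer cells from cisplatin or sensitise them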", "cells": "human A549 lung cancer cells", "reagents": "siRNA pair against human genes", "timing": "48 h transfection before cisplatin; time from cisplatin to read-out not stated", "treatment": "cisplatin at a dose killing half of control-siRNA cells; exact dose and duration not given", "read-out": "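Shift in cisplatin death relative to control siRNA, from -50 (all cells die) to +50 (no cells die); siRNAs harmful on their own scored 0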", "direction": "two-siRNA summed score (-2 to +2): higher = both siRNAs protect from cisplatin killing; -2 means both sensitise", "rule for the call": "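siRNAs harmful alone (LDH or WST-1) get 0; others get +1 for less and -1 for more cisplatin killing; genes are active when the two siRNAs give the same sign, summing to ±2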", "meaning of the calls": "active = both siRNAs shift cisplatin killing the same way; inactive = no consistent shift, or siRNA harmful alone", "note": "The deposit covers about 23,000 reagents; this is an unselected part. 455 of them (2%) were called active. 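Active includes both protection and sensitisation; some change values fall well beyond the stated -50 to +50 range.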 Further read-outs or replicates are left out here. No sequences are given here. The record does not give: the amount of reagent."}
{"target": "ETHE1", "two-siRNA summed score (-2 to +2)": 0, "Call": "inactive"}
{"target": "ZFP36", "two-siRNA summed score (-2 to +2)": 1, "Call": "inactive"}
{"target": "LOC338902", "two-siRNA summed score (-2 to +2)": 0, "Call": "inactive"}
{"target": "PLEKHH2", "two-siRNA summed score (-2 to +2)": 0, "Call": "inactive"}
{"target": "KIAA1026", "two-siRNA summed score (-2 to +2)": 0, "Call": "inactive"}
{"target": "NKAIN3", "two-siRNA summed score (-2 to +2)": 0, "Call": "inactive"}
{"target": "LINC02433", "two-siRNA summed score (-2 to +2)": 0, "Call": "inactive"}
{"target": "ECD", "two-siRNA summed score (-2 to +2)": 0, "Call": "inactive"}
{"target": "ZNF428", "two-siRNA summed score (-2 to +2)": 0, "Call": "inactive"}
{"target": "FOXN3-AS1", "two-siRNA summed score (-2 to +2)": 0, "Call": "inactive"}
{"target": "TDRD6", "two-siRNA summed score (-2 to +2)": 1, "Call": "inactive"}
{"target": "POF1B", "two-siRNA summed score (-2 to +2)": 0, "Call": "inactive"}
{"target": "BMPR2", "two-siRNA summed score (-2 to +2)": -1, "Call": "inactive"}
{"target": "TMEM187", "two-siRNA summed score (-2 to +2)": 2, "Call": "active"}
{"target": "OR2AE1", "two-siRNA summed score (-2 to +2)": 0, "Call": "inactive"}
{"target": "FOXR2", "two-siRNA summed score (-2 to +2)": 0, "Call": "inactive"}
{"target": "SIRPD", "two-siRNA summed score (-2 to +2)": 0, "Call": "inactive"}
{"target": "LOC441556", "two-siRNA summed score (-2 to +2)": 1, "Call": "inactive"}
{"target": "GSG1L", "two-siRNA summed score (-2 to +2)": 0, "Call": "inactive"}
{"target": "HDAC6", "two-siRNA summed score (-2 to +2)": 0, "Call": "inactive"}
{"target": "FANCL", "two-siRNA summed score (-2 to +2)": 0, "Call": "inactive"}

In a second layout: 3 of the entries above.
FOXN3-AS1
- two-siRNA summed score (-2 to +2): 0
- Call: inactive

TDRD6
- two-siRNA summed score (-2 to +2): 1
- Call: inactive

POF1B
- two-siRNA summed score (-2 to +2): 0
- Call: inactive
